# Results published in article PMC12494973.
# Results are given in words; binding and its absence hold for the method and conditions named. In cells and extracts the contact can be indirect. Some entries that bind do so weakly or less than the wild type. For some assays here: Sequences can lack the tags named with a protein.
# T1: Mitochondrial carrier homolog 2 (MTCH2) (mouse (endogenous in iBAs)) (UniProt Q791V5)
# T1 sequence: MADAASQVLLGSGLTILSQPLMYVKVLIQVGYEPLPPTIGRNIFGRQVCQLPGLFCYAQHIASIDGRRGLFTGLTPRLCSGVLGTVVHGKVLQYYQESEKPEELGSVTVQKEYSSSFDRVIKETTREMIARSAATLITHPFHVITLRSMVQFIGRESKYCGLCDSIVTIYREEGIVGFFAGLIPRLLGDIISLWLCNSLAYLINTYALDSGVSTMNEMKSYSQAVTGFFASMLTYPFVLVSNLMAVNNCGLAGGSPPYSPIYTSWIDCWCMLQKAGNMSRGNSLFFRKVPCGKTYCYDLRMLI
# T2: mouse FLAG-MTCH2 (mouse) (UniProt Q791V5)
# T2 sequence: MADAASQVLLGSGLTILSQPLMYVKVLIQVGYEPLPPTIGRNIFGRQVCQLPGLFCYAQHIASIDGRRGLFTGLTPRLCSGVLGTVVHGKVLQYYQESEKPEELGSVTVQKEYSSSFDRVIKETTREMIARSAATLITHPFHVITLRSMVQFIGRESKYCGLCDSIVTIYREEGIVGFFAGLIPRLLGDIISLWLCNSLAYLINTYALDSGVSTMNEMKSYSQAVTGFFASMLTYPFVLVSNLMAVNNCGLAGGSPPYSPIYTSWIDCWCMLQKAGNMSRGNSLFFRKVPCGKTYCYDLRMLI
# Tests used:
# [1] = target: T1, Mitochondrial carrier homolog 2 (MTCH2) (mouse (endogenous in iBAs)); test: proximity ligation; differentiated iBAs fixed with paraformaldehyde 20 min at room temperature; kit from Sigma-Aldrich; rabbit anti-MTCH2 and mouse anti-CPT1A or anti-CPT1B; incubation without antibodies as negative control
# mouse FLAG-MTCH2 (mouse) = target: T2, mouse FLAG-MTCH2 (mouse); test: co-IP; HEK293T cells overexpressing mouse FLAG-MTCH2; whole cell lysate in RIPA buffer (50 mM Tris-HCl pH 7.4, 150 mM NaCl, 2 mM EDTA, 1.0% Triton X-100); anti-FLAG beads overnight at 4 °C; blots for FLAG, CPT1a, CPT1b
binding [1],binding (mouse FLAG-MTCH2 (mouse)),Binder
binds,–,"Carnitine palmitoyltransferase 1B (CPT1B) (enzyme, UniProt Q924X2 1-772) MAEAHQAVAFQFTVTPDGVDFRLSREALRHIYLSGINSWKKRLIRIKNGILRGVYPGSPTSWLVVVMATVGSNYCKVDISMGLVDCIQRCLPERYGHFGTPQTEALLSMVIFSTGVWATGIFFFRQTLKLLLSYHGWMFEMHSKTSHATKIWAICVRLLSSRRPMLYSFQTSLPKLPVPSVPATIHRYLDSVRPLLDDEAYYRMETLAKEFQDKTAPRLQKYLVLKSWWATNYVSDWWEEYVYLRSRSPLMVNSNYYAMDFVLIKNTNVQAARLGNAVHAMIMYRRKLDREEIKPVMALGMVPMCSYQMERMFNTTRIPGKETDLLQHLSESRHVAVYHKGRFFKVWLYEGSRLLKPRDLEMQFQRILDDPSPPQPGEEKLAALTAGGRVEWAEARQTFFSSGKNKMSLDAIERAAFFVTLDEDSHCYNPDDETSLSLYGKALLHGNCYNRWFDKSFTLISCKNGLLGLNTEHSWADAPIIGHLWEFVLGTDTFHLGYTETGHCVGEPNTTLPPPQRLPWDIPEQCREAIENSYQVAKALADDVELYCFQFLPFGKGLIKKCRTSPDAFVQIALQLAHFRDKGKFCLTYEASMTRMFREGRTETVRSCTNESAAFVQAMMKGSHKKQDLQDLFRKASEKHQNMYRLAMTGAGIDRHLFCLYIVSKYLGVSSPFLAEVLSEPWSLSTSQIPQFQICMFDPKQYPNHLGAGGGFGPVADDGYGVSYMIAGENTMFFHISSKYSSSETNAQRFGNHIRQALLDIAELFKISKTDS"
–,binds,"CPT1B in HEK293T whole cell extract (enzyme, UniProt Q92523 1-772) MAEAHQAVAFQFTVTPDGVDFRLSREALKHVYLSGINSWKKRLIRIKNGILRGVYPGSPTSWLVVIMATVGSSFCNVDISLGLVSCIQRCLPQGCGPYQTPQTRALLSMAIFSTGVWVTGIFFFRQTLKLLLCYHGWMFEMHGKTSNLTRIWAMCIRLLSSRHPMLYSFQTSLPKLPVPRVSATIQRYLESVRPLLDDEEYYRMELLAKEFQDKTAPRLQKYLVLKSWWASNYVSDWWEEYIYLRGRSPLMVNSNYYVMDLVLIKNTDVQAARLGNIIHAMIMYRRKLDREEIKPVMALGIVPMCSYQMERMFNTTRIPGKDTDVLQHLSDSRHVAVYHKGRFFKLWLYEGARLLKPQDLEMQFQRILDDPSPPQPGEEKLAALTAGGRVEWAQARQAFFSSGKNKAALEAIERAAFFVALDEESYSYDPEDEASLSLYGKALLHGNCYNRWFDKSFTLISFKNGQLGLNAEHAWADAPIIGHLWEFVLGTDSFHLGYTETGHCLGKPNPALAPPTRLQWDIPKQCQAVIESSYQVAKALADDVELYCFQFLPFGKGLIKKCRTSPDAFVQIALQLAHFRDRGKFCLTYEASMTRMFREGRTETVRSCTSESTAFVQAMMEGSHTKADLRDLFQKAAKKHQNMYRLAMTGAGIDRHLFCLYLVSKYLGVSSPFLAEVLSEPWRLSTSQIPQSQIRMFDPEQHPNHLGAGGGFGPVADDGYGVSYMIAGENTIFFHISSKFSSSETNAQRFGNHIRKALLDIADLFQVPKAYS"
